This note sets out measurements from PubChem BioAssay AID2205 (University of Pittsburgh Molecular Library Screening Center, 2009).

Molecules are shown by their SMILES. This is one part of the list.

This experiment can be described thus: tubulin staining increase by stabilizing compounds – imaging, high-content imaging, primary screen (AID 2205).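 For toxicity: 0% = mean cell density of plate MIN control wells and 100% = no cells.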 The settings on record: HeLa tubulin immunostaining HCS, 24 h, at 10 µM; % Hoechst-high responders: measured here: nuclear condensation Hoechst responders, stronger effect = higher value, share of cells brighter than vehicle mean+2SD; toxicity: measured here: cytotoxicity by cell density.
As to `COc1ccc(OP(C)(=O)Nc2ccc(Br)cc2)cc1` (stereo not drawn), the % Hoechst-high responders was 2.23% and the toxicity turned out to be 2.99%.
`COc1ccc(C2=NCC(CBr)S2)cc1` (stereo not drawn) yielded a % Hoechst-high responders of 4.26% and a toxicity of 2.86%.
For `CCN(CC)CC(O)COC(=O)C(O)(c1ccccc1)C1CCCCC1` (stereo not drawn), in that order: 2.03% and 5.32%.
The matching figures for `CCc1nc2c(n1)c1c(non1O)c1c2no[n+]1[O-]`: 4.13% and 2.09%.
For `O=[N+]([O-])c1cc([N+](=O)[O-])c(CCNc2ccccc2)c([N+](=O)[O-])c1`, in that order: 1.22% and 10.1%.
With `CCc1ccc(OP(C)(=O)Nc2cccnc2)cc1` (stereo not drawn), the % Hoechst-high responders was determined as 3.4% and the toxicity stood at 6.53%.
In turn, `CP(=O)(Oc1ccccc1)N1CCOC1=O` (stereo not drawn) returned a % Hoechst-high responders of 0.982% and a toxicity of 2.07%.
The matching figures for `Cc1ccc(NP(=O)(Oc2ccccc2)Oc2ccccc2)nc1`: 2.75% and 12.1%.
For `COc1ccccc1OP(C)(=O)Nc1c(C)n(C)n(-c2ccccc2)c1=O` (stereo not drawn), in that order: 1.41% and 0.441%.
The matching figures for `O=[N+]([O-])c1cccc2n[nH]nc12`: 1.8% and 3.4%.
As to `CC(=O)N1C2C3N(C(C)=O)C1C1N(C(C)=O)C(C(N1C(C)=O)N3C(C)=O)N2C(C)=O`, the % Hoechst-high responders worked out at 1.64% and the toxicity worked out at 4.08%.
Regarding `CP(=O)(Nc1ccc(Cl)cc1)Oc1ccc(F)cc1` (stereo not drawn), the % Hoechst-high responders stood at 1.11% and the toxicity turned out to be 6.63%.
The matching figures for `CCN(/C(=N/P(=O)(N1CCOCC1)N1CCOCC1)N1CCOCC1)c1ccc(OC)cc1`: 3.06% and 0.393%.
The matching figures for `CC(C)(C)c1ccc(OP(C)(=O)O)cc1`: 2.71% and 7.54%.
The matching figures for `COc1ccccc1OP(C)(=O)Nc1ccccc1Br` (stereo not drawn): 1.82% and 1.67%.
For the compound `CC1CCN(C(=O)Oc2c(Cl)cc(Cl)c3cccnc23)CC1`, the % Hoechst-high responders came out at 1.97% and the toxicity is 8.05%.
The matching figures for `CN(C)C(=O)OCCc1n(C)cc[n+]1C`: 2.26% and 3.45%.
In turn, `CN(C)C(=O)c1c([N+](=O)[O-])cc([N+](=O)[O-])cc1[N+](=O)[O-]` displayed a % Hoechst-high responders of 4.02% and a toxicity of 3.21%.
On to `CC(C)=N/N=C(\N)N[N+](=O)[O-]`, for which the % Hoechst-high responders was determined as 2.05% and the toxicity is 13.5%.
The compound `CP(=O)(OC12CC3CC(CC(C3)C1)C2)OC12CC3CC(CC(C3)C1)C2` registered a % Hoechst-high responders of 1.84% and a toxicity of 6.82%.
For `CCOC(=O)c1ccc(NP(C)(=O)Oc2ccc(Cl)cc2)cc1` (stereo not drawn), in that order: 3.2% and 10.8%.
`O=[N+]([O-])c1ncn(CCn2ncnc2[N+](=O)[O-])n1` gave a % Hoechst-high responders of 0.901% and a toxicity of 3.1%.
With `Cc1cc(C)cc(OP(C)(=O)Nc2cccc(C(F)(F)F)c2)c1` (stereo not drawn), the % Hoechst-high responders turned out to be 1.85% and the toxicity was 0.2%.
With `COc1ccc(OP(C)(=O)Nc2ccccc2Br)cc1` (stereo not drawn), the % Hoechst-high responders is 3.01% and the toxicity was determined as 7.2%.
In turn, `COc1ccccc1OP(C)(=O)Nc1ccc(C)c(C)c1` (stereo not drawn) yielded a % Hoechst-high responders of 2.75% and a toxicity of 5.73%.
The matching figures for `CCOP(=O)(Nc1ccccc1)OCC`: 3.39% and 6.79%.
For `Cc1cc(SC(NC(=O)c2ccc(F)cc2)C(Cl)(Cl)Cl)ncn1` (stereo not drawn), in that order: 1.18% and 5.56%.
`Cc1nc2ccc3ccccc3c2o1.O=[N+]([O-])c1cc([N+](=O)[O-])c(O)c([N+](=O)[O-])c1`: the % Hoechst-high responders was found to be 2.19% and the toxicity came out at 0.834%.
As for `CP(=O)(OCCOc1ccccc1)OCCOc1ccccc1`, the % Hoechst-high responders is 2.85% and the toxicity is 8.04%.
With `CP(=O)(Nc1ccc(Cl)cc1Cl)Oc1ccccc1` (stereo not drawn), the % Hoechst-high responders was determined as 1.51% and the toxicity turned out to be 7.03%.
`CCN(N=Nc1nonc1N)c1nonc1N` came in with a % Hoechst-high responders of 2.3% and a toxicity of 1.22%.
In the case of `Cc1ccc(N/C(=N/P(=O)(N2CCOCC2)N2CCOCC2)N2CCOCC2)cc1`, the % Hoechst-high responders was 2.02% and the toxicity was 9.89%.
In turn, `NC(=O)c1cc([N+](=O)[O-])cc([N+](=O)[O-])c1N` came in with a % Hoechst-high responders of 1.79% and a toxicity of 8.05%.
The matching figures for `Clc1ccc(Cl)c(NC2=NCC(CBr)S2)c1` (stereo not drawn): 1.2% and 4.62%.
The matching figures for `CN(C)CCOC(=O)C(O)(c1ccccc1)C1CCCC1` (stereo not drawn): 0.403% and 5.87%.
For `CN1CCCC(OC(=O)C(c2ccccc2)c2ccccc2)C1` (stereo not drawn), in that order: 0.76% and 22.6%.
Compound `COc1ccc(OP(C)(=O)Nc2ccccn2)cc1` (stereo not drawn) had a % Hoechst-high responders of 1.8% and a toxicity of 19.1%.
Regarding `COc1ccccc1OP(=O)(Nc1ccc(C)cn1)Oc1ccccc1OC`, the % Hoechst-high responders was determined as 1.05% and the toxicity stood at 10.7%.
`Cc1c2non([O-])c-2c(C)[n+](=O)[n+]1[O-]` gave a % Hoechst-high responders of 1.93% and a toxicity of 7.48%.
For `O=C(NC(Sc1ccncn1)C(Cl)(Cl)Cl)c1ccccc1` (stereo not drawn), in that order: 1.2% and 3.32%.
The matching figures for `Oc1ccccc1CNc1ccccn1`: 1.24% and 7.55%.
As to `CC(C)CC(=O)NC(Sc1ccc(Cl)cc1)C(Cl)(Cl)Cl` (stereo not drawn), the % Hoechst-high responders came out at 1.67% and the toxicity was 5.38%.
For `O=[N+]([O-])c1cc([N+](=O)[O-])c(Nc2ccccn2)c([N+](=O)[O-])c1`, in that order: 2.17% and 0.161%.
As for `Cc1c(NP(C)(=O)Oc2ccc(C(C)C)cc2)c(=O)n(-c2ccccc2)n1C` (stereo not drawn), the % Hoechst-high responders is 2.01% and the toxicity is 1.83%.
For `CCc1ccc(OP(C)(=O)O)cc1`, in that order: 2.07% and 8.5%.
The compound `COc1ccccc1OP(C)(=O)Nc1ccc(C)cc1C` (stereo not drawn) showed a % Hoechst-high responders of 1.5% and a toxicity of 6.98%.
The matching figures for `CP(=O)(Nc1ccccn1)Oc1ccccc1` (stereo not drawn): 2.23% and 15.2%.
The matching figures for `CCOc1ccc(C2=NCC(CBr)S2)cc1` (stereo not drawn): 7.35% and 54.2%.
For `O=P1(Nc2nc3ccc(Cl)cc3s2)COc2ccccc2O1` (stereo not drawn), in that order: 1.47% and 12%.
`CC(C)c1ccc(OP(C)(=O)Nc2ccc(SC(F)(F)F)cc2)cc1` (stereo not drawn) yielded a % Hoechst-high responders of 3.15% and a toxicity of 12.5%.
The matching figures for `CC(C)(C)C(=O)NC(Sc1ccccc1)C(Cl)(Cl)Cl` (stereo not drawn): 1.7% and 3%.
`CP(=O)(Nc1ccccc1F)Oc1ccccc1` (stereo not drawn) registered a % Hoechst-high responders of 2.16% and a toxicity of 11.4%.
With `O=C(OCCN1CCN(CCOCc2ccccc2)CC1)C(O)(c1ccccc1)c1ccccc1`, the % Hoechst-high responders is 2.79% and the toxicity was found to be 12.5%.
The matching figures for `CC(=O)Nc1ccc(Oc2c([N+](=O)[O-])cc([N+](=O)[O-])cc2[N+](=O)[O-])cc1`: 1.47% and 8.66%.
For the compound `CCOC(=O)NC(Sc1ccccc1)C(Cl)(Cl)Cl` (stereo not drawn), the % Hoechst-high responders is 1.77% and the toxicity stood at 8.69%.
`c1ccc(-c2nn[nH]n2)c(-c2nn[nH]n2)c1` displayed a % Hoechst-high responders of 1.69% and a toxicity of 13.1%.
The matching figures for `CCNC(=S)/N=C(\N)N[N+](=O)[O-]`: 2.46% and 6.65%.
On to `O=C(NC1CCS(=O)(=O)C1)NP(=S)(Oc1ccccc1)Oc1ccccc1` (stereo not drawn), for which the % Hoechst-high responders worked out at 2% and the toxicity amounted to 4.87%.
For `COc1ccc(OP(C)(=O)Nc2ccc(SC(F)(F)F)cc2)cc1` (stereo not drawn), in that order: 2.5% and 7.04%.
In turn, `CCOC(=O)c1ccc(NP(C)(=O)Oc2ccc(F)cc2)cc1` (stereo not drawn) displayed a % Hoechst-high responders of 1.51% and a toxicity of 8.15%.
Consider `CCN(CC)CCCOC(=O)C(O)(c1ccccc1)C1CCCCC1` (stereo not drawn), for which the % Hoechst-high responders was 2.18% and the toxicity is 8.02%.
Compound `CCC(=O)N1C2C3N(C(=O)CC)C1C1N(C(=O)CC)C(C(N1C(=O)CC)N3C(=O)CC)N2C(=O)CC` had a % Hoechst-high responders of 1.41% and a toxicity of 4.2%.
The matching figures for `Cc1ccc(OP(=O)(Nc2ccccn2)Oc2ccc(C)cc2)cc1`: 2.98% and 4.93%.
The matching figures for `CC(=O)NC(SC(=S)N(CC(C)C)CC(C)C)C(Cl)(Cl)Cl` (stereo not drawn): 3.61% and 0.595%.
